Results deposited as PubChem BioAssay AID1259308 (NCATS, 2017)

- Purpose: 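Genes whose loss raises luciferase production in HEK293 cells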 (primary screen)
- System: human HEK293 embryonic kidney cells stably expressing firefly luciferase (HEK-CMV-Luc2-Hygro)
- Reagent: single siRNA against human genes, 0.8 pmol siRNA per well
- Timing: 72 h
- Detection: 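Luciferase light (ONE-Glo) measured on one replicate plate set and viability (CellTiter-Glo) on the other, scaled to a negative control siRNA, with robust z-scores and luciferase per cell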
- Direction: total luciferase, z-score and total luciferase, % of control: higher = more reporter protein produced
- Hit rule: 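Active when the median/MAD z-score for overall luciferase is greater than 3; a gene was taken forward for validation with new siRNAs if at least two of its three siRNAs passed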
- Meaning of the calls: active = raised luciferase; inactive = no rise
The whole screen tested about 59,000 reagents; below is an unselected part. Over the whole deposit, about 1,510 (2.6%) are marked active. 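Calls use total luciferase alone and ignore viability, so some active siRNAs may act by altering cell number.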 Reagents against one gene are numbered here. Not all columns of the deposit are shown. No sequences are given here.

How did the screen score CHD1L (chromodomain helicase DNA binding protein 1 like) #1?
total luciferase, z-score: 6.54; total luciferase, % of control: 212; call: active

What did the screen give for CHD1L (chromodomain helicase DNA binding protein 1 like) #2?
total luciferase, z-score: 0.89; total luciferase, % of control: 99.6; call: inactive

What is on record for CHD1L (chromodomain helicase DNA binding protein 1 like) #3?
total luciferase, z-score: 0.51; total luciferase, % of control: 92; call: inactive

What is on record for NME5 (NME/NM23 family member 5) #1?
total luciferase, z-score: 0.981; total luciferase, % of control: 101; call: inactive

What is on record for NME5 (NME/NM23 family member 5) #2?
total luciferase, z-score: 1.01; total luciferase, % of control: 102; call: inactive

For NME5 (NME/NM23 family member 5) #3, what was measured?
total luciferase, z-score: 0.146; total luciferase, % of control: 84.8; call: inactive

How did the screen score SIN3B (SIN3 transcription regulator family member B) #1?
total luciferase, z-score: -0.731; total luciferase, % of control: 67.4; call: inactive

How did the screen score SIN3B (SIN3 transcription regulator family member B) #2?
total luciferase, z-score: -1.07; total luciferase, % of control: 60.7; call: inactive

For SIN3B (SIN3 transcription regulator family member B) #3, how do the results read?
total luciferase, z-score: -0.562; total luciferase, % of control: 70.7; call: inactive

With PKNOX1 (PBX/knotted 1 homeobox 1) #1, what was measured?
total luciferase, z-score: 0.77; total luciferase, % of control: 97.2; call: inactive

With PKNOX1 (PBX/knotted 1 homeobox 1) #2, what does the deposit list?
total luciferase, z-score: -1.08; total luciferase, % of control: 60.4; call: inactive

How did the screen score PKNOX1 (PBX/knotted 1 homeobox 1) #3?
total luciferase, z-score: -0.564; total luciferase, % of control: 70.7; call: inactive

How did the screen score SCRG1 (stimulator of chondrogenesis 1) #1?
total luciferase, z-score: 0.0257; total luciferase, % of control: 82.4; call: inactive

For SCRG1 (stimulator of chondrogenesis 1) #2, how do the results read?
total luciferase, z-score: -0.547; total luciferase, % of control: 71; call: inactive

What is on record for SCRG1 (stimulator of chondrogenesis 1) #3?
total luciferase, z-score: 2.95; total luciferase, % of control: 141; call: inactive

What did the screen give for NHLRC1 (NHL repeat containing E3 ubiquitin protein ligase 1) #1?
total luciferase, z-score: 0.277; total luciferase, % of control: 87.4; call: inactive

How did the screen score NHLRC1 (NHL repeat containing E3 ubiquitin protein ligase 1) #2?
total luciferase, z-score: 1.55; total luciferase, % of control: 113; call: inactive

With NHLRC1 (NHL repeat containing E3 ubiquitin protein ligase 1) #3, what does the deposit list?
total luciferase, z-score: 2.25; total luciferase, % of control: 127; call: inactive

Records listed above marked active (1):
CHD1L (chromodomain helicase DNA binding protein 1 like) #1 — total luciferase, z-score: 6.54; total luciferase, % of control: 212; call: active

The listing continues.
With LPA (lipoprotein(a)) #1, how do the results read?
total luciferase, z-score: -0.578; total luciferase, % of control: 70.4; call: inactive

Which result is listed for LPA (lipoprotein(a)) #2?
total luciferase, z-score: -0.502; total luciferase, % of control: 71.9; call: inactive

What did the screen give for LPA (lipoprotein(a)) #3?
total luciferase, z-score: 0.705; total luciferase, % of control: 95.9; call: inactive

For GCNT3 (glucosaminyl (N-acetyl) transferase 3, mucin type) #1, what was measured?
total luciferase, z-score: 0.846; total luciferase, % of control: 98.7; call: inactive

What is on record for GCNT3 (glucosaminyl (N-acetyl) transferase 3, mucin type) #2?
total luciferase, z-score: 0.23; total luciferase, % of control: 86.5; call: inactive

For GCNT3 (glucosaminyl (N-acetyl) transferase 3, mucin type) #3, how do the results read?
total luciferase, z-score: 0.596; total luciferase, % of control: 93.7; call: inactive

With ZNF254 (zinc finger protein 254) #1, what does the deposit list?
total luciferase, z-score: -1.44; total luciferase, % of control: 53.2; call: inactive

For ZNF254 (zinc finger protein 254) #2, how do the results read?
total luciferase, z-score: 0.203; total luciferase, % of control: 85.9; call: inactive

How did the screen score ZNF254 (zinc finger protein 254) #3?
total luciferase, z-score: -0.48; total luciferase, % of control: 72.3; call: inactive

What is on record for TSLP (thymic stromal lymphopoietin) #1?
total luciferase, z-score: -0.96; total luciferase, % of control: 62.8; call: inactive

For TSLP (thymic stromal lymphopoietin) #2, what was measured?
total luciferase, z-score: 2.48; total luciferase, % of control: 131; call: inactive

How did the screen score TSLP (thymic stromal lymphopoietin) #3?
total luciferase, z-score: 1.45; total luciferase, % of control: 111; call: inactive

With PMVK (phosphomevalonate kinase) #1, what was measured?
total luciferase, z-score: -0.771; total luciferase, % of control: 66.6; call: inactive

For PMVK (phosphomevalonate kinase) #2, what was measured?
total luciferase, z-score: 2.67; total luciferase, % of control: 135; call: inactive

With PMVK (phosphomevalonate kinase) #3, how do the results read?
total luciferase, z-score: 3.24; total luciferase, % of control: 146; call: active
